From paper PMC7472727, “Novel Escherichia coli RNA Polymerase Binding Protein Encoded by Bacteriophage T5”
The exact form of at least one protein or probe is not confirmed. For some assays here: At least one verdict rests on a figure or table, not on a statement of the authors.

Columns and labels:
[1] = system: RNAP holoenzyme with [211Cys-TMR] sigma70 (RNAP beacon) + gpT5.026 S211C; test: fluorescence RNAP beacon titration; details: 100 nM gpT5.026 preincubated 15 min; 40 mM Tris-HCl pH 8.0, 100 mM NaCl, 5% glycerol, 1 mM DTT, 10 mM MgCl2, 0.02% Tween 20, 25 C; 1 nM labeled RNAP holoenzyme; recombinant protein; single-stranded DNA
[2] = system: RNAP holoenzyme with [211Cys-TMR] sigma70 (RNAP beacon) S211C (Escherichia coli); test: fluorescence RNAP beacon titration; details: no gpT5.026; 40 mM Tris-HCl pH 8.0, 100 mM NaCl, 5% glycerol, 1 mM DTT, 10 mM MgCl2, 0.02% Tween 20, 25 C; 1 nM labeled RNAP holoenzyme; recombinant protein; protein details: 5-TMR label at sigma70 position 211; single-stranded DNA

TATAATAGATTCAT [-12/+2 oligonucleotide]
binding signal (fold lower binding than without gpT5.026) [1]: 8 | binding result [2]: binds
